The target in the assay is Ran-binding protein 2 (human (endogenous in HEK293)) (UniProt P49792). The assay can be described thus: co-IP.

The chains behind the UniProt entries cited, without tags or fusion partners.
UniProt P49792: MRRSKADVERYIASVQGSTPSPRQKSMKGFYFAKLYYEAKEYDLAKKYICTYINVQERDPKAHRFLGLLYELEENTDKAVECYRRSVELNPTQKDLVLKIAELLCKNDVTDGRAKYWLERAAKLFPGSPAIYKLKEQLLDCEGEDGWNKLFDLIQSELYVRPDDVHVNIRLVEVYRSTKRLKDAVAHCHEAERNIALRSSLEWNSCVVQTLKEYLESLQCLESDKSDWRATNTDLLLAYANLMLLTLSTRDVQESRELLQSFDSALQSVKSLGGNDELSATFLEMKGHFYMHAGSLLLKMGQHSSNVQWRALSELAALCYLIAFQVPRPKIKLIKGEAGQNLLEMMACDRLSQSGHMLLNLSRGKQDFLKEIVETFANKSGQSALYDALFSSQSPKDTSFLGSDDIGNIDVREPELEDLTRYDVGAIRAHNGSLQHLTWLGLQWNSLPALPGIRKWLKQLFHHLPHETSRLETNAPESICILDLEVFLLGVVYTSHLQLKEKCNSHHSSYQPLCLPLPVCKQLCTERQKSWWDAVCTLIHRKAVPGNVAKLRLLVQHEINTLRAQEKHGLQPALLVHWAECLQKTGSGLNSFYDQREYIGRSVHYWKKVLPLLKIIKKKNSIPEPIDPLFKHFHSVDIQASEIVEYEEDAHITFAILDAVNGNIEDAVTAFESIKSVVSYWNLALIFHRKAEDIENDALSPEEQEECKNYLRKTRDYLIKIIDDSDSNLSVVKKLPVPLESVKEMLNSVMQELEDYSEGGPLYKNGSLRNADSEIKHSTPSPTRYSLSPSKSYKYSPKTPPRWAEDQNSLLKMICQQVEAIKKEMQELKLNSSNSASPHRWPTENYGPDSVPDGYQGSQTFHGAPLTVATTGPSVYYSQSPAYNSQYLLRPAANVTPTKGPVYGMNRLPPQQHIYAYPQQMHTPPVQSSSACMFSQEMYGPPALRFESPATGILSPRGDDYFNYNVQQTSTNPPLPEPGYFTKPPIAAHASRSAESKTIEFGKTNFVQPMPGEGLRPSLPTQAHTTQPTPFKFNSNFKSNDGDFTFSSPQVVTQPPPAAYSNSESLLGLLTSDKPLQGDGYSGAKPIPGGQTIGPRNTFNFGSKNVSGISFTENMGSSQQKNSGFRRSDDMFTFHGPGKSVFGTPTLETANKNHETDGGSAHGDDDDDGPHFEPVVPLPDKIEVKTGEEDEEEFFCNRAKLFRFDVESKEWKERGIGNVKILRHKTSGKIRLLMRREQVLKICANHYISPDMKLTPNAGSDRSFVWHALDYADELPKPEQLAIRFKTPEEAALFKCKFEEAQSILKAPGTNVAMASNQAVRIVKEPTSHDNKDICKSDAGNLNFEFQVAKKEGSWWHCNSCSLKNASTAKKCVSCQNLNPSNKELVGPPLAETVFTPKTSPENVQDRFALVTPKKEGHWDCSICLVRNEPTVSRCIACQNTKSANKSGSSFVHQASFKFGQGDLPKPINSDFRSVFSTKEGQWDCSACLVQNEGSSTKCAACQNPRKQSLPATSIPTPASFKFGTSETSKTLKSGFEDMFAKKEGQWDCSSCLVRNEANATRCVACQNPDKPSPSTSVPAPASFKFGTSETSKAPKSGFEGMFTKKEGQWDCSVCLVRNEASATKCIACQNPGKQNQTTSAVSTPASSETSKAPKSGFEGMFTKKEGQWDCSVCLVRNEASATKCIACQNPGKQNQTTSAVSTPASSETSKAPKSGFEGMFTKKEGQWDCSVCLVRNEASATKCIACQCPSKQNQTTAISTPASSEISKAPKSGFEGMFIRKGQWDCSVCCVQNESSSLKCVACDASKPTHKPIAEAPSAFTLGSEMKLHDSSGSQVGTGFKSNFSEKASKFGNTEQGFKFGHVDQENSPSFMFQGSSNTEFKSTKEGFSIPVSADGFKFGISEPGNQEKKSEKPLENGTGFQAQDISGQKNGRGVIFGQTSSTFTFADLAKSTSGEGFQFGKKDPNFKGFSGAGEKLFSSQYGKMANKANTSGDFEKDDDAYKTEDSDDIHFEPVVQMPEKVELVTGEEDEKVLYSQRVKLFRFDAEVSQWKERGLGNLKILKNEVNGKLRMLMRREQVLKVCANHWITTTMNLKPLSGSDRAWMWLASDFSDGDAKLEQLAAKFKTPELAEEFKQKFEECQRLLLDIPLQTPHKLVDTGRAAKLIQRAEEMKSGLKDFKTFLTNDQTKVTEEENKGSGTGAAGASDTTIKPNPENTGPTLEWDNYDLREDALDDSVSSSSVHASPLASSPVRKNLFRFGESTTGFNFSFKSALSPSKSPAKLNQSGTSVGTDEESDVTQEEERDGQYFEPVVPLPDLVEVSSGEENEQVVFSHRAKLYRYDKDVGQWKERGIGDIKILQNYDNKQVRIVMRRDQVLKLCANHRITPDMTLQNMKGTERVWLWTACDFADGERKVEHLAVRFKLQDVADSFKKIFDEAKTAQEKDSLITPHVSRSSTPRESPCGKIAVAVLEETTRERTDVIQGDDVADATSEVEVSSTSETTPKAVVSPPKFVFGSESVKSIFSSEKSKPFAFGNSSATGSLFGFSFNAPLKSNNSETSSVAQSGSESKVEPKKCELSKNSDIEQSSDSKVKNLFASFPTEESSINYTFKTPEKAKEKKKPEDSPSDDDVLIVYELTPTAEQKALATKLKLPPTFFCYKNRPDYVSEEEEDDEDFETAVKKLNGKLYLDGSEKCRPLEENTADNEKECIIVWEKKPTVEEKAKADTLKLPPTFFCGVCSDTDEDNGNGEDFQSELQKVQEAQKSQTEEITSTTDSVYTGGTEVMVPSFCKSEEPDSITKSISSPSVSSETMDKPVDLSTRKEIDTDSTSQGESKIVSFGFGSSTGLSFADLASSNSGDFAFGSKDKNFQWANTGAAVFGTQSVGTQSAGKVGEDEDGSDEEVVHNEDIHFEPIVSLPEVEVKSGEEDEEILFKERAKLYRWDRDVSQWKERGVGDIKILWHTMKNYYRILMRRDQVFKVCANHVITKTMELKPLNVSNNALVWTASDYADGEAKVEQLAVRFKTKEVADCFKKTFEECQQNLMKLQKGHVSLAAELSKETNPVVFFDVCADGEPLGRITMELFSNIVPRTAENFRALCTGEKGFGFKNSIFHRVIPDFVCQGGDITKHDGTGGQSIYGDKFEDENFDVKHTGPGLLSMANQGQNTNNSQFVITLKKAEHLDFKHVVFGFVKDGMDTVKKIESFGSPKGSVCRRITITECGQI
UniProt Q93008: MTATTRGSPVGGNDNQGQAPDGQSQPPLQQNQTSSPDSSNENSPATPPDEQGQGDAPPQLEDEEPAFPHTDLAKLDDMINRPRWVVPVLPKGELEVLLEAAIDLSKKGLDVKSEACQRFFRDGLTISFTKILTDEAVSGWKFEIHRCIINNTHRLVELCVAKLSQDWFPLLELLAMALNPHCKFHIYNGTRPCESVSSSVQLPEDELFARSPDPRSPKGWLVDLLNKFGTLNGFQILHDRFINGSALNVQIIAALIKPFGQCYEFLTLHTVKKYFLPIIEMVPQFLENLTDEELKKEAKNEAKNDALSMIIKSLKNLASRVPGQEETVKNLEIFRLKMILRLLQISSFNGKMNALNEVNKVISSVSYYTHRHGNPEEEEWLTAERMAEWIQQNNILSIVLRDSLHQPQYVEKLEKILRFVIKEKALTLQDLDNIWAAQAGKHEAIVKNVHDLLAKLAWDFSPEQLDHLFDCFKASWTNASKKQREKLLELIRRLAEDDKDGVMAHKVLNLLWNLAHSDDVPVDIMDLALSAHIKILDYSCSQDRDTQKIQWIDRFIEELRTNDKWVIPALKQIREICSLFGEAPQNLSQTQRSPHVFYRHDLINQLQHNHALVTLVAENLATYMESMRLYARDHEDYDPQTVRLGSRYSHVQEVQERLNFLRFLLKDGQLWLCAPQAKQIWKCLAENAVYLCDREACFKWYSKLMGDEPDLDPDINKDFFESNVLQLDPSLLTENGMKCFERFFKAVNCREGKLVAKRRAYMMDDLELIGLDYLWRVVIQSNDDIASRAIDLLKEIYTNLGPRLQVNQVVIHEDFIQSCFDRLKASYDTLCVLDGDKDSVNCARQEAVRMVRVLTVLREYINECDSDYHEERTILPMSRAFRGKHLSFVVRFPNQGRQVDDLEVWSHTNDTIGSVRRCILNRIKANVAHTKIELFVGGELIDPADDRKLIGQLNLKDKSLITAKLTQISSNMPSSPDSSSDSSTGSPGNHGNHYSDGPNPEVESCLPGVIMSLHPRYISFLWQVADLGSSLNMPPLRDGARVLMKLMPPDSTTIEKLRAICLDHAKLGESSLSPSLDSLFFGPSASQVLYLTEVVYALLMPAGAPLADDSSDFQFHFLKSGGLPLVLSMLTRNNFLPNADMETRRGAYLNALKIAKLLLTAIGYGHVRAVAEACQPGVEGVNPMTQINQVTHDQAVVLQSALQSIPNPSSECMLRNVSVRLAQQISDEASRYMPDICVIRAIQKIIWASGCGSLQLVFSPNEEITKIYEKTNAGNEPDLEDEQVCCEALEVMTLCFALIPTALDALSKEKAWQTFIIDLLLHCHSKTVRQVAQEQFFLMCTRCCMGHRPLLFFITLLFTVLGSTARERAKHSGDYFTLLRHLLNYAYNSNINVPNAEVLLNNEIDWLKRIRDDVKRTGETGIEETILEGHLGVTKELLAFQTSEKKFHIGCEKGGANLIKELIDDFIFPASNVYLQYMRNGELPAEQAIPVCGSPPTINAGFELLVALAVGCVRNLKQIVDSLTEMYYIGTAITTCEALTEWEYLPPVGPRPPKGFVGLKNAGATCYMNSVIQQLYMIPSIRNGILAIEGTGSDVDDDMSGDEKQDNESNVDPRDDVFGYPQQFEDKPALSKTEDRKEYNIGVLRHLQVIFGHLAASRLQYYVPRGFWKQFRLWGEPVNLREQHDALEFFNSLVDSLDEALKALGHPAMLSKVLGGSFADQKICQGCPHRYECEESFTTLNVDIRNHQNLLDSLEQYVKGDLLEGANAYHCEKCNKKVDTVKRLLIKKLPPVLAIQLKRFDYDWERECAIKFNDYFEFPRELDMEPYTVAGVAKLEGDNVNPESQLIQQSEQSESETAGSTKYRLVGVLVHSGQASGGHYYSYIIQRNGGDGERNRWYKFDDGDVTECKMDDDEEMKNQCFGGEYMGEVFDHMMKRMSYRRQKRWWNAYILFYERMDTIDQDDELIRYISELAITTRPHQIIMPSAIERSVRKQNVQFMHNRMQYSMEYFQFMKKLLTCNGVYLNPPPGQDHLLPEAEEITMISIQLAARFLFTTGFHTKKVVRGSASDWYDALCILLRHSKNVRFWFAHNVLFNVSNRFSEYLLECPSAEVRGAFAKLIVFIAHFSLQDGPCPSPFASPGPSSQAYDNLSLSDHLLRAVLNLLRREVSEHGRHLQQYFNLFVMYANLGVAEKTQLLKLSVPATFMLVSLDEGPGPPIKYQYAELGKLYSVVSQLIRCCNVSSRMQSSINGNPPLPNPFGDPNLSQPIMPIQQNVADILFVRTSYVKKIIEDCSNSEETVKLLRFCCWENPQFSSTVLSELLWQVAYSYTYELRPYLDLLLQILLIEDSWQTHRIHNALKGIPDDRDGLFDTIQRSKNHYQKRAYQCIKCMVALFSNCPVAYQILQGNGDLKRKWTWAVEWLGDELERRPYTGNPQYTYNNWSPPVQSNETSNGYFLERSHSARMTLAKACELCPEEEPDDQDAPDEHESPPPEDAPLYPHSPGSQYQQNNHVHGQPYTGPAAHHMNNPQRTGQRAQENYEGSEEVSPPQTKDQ

No constants are given. Whether binding was seen depends on the method and setting. In cells and extracts the contact can be indirect.

Turning to “ubiquitin-specific protease 9x (from UniProt Q93008 1-2554) (enzyme)”, the binding entry is “no binding”.

For the origin of these results see article PMC9242475.
